## Library screen at single concentrations

Chains of the proteins cited; added tags and fusions are not shown. Residues count along the entry.
UniProt I6X8D2, whole entry: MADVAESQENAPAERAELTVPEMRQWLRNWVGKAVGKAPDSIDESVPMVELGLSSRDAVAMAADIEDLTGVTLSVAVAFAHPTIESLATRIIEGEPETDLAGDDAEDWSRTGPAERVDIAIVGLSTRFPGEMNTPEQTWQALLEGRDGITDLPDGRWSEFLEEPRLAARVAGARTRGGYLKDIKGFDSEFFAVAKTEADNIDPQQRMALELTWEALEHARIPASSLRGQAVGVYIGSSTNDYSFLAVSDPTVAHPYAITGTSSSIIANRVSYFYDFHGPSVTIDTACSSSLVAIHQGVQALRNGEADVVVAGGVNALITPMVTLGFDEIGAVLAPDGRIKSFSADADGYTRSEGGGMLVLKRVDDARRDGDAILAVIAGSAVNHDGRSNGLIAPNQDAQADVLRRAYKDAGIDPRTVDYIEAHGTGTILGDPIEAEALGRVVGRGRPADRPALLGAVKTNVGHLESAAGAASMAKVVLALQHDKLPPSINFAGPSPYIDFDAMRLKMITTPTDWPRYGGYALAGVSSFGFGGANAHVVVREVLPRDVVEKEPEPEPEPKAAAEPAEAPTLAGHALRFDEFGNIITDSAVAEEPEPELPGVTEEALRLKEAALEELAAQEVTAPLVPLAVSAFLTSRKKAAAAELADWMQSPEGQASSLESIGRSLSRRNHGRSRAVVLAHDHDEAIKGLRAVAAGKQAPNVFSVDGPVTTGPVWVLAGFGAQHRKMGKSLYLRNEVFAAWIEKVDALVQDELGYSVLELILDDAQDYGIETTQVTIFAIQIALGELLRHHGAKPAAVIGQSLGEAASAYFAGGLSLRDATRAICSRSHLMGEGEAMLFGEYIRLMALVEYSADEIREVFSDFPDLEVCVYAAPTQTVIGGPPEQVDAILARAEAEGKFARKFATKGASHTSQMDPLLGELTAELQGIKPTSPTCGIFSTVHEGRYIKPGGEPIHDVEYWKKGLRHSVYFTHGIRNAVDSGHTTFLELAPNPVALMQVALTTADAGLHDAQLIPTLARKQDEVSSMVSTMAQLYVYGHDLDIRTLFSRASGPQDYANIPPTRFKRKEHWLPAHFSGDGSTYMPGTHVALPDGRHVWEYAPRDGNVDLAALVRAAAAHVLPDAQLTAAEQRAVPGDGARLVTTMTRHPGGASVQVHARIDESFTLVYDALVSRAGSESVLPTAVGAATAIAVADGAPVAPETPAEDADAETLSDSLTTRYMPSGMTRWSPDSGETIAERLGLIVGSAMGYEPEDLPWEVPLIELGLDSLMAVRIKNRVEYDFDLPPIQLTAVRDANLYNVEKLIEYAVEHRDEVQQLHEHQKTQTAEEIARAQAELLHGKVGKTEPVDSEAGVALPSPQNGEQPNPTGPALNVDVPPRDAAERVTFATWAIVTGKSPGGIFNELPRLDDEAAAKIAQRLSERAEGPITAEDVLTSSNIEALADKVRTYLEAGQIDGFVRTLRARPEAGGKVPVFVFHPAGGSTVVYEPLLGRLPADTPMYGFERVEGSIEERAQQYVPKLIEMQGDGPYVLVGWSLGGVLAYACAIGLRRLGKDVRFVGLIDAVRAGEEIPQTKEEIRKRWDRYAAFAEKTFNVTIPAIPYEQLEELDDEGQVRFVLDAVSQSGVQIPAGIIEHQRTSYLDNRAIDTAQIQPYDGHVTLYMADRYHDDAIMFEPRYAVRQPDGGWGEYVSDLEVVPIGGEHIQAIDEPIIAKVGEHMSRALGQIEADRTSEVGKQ
UniProt A4I591, 1-473: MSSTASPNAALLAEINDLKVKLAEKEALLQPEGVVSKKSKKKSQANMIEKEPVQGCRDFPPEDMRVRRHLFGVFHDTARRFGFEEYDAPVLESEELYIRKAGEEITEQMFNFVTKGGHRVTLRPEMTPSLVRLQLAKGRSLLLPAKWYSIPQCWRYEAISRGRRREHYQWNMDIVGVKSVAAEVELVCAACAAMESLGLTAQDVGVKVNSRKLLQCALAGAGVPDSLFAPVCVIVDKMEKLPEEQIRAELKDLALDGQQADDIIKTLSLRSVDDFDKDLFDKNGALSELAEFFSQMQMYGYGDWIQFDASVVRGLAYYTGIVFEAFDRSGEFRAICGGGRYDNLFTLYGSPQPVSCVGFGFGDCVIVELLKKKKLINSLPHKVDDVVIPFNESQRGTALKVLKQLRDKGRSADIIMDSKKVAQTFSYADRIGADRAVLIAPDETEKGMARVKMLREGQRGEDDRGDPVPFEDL

Leishmania in macrophages: 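Cell assay of Leishmania donovani living inside macrophages; the read-out is not stated. Tested at 30 µM. Higher reads as stronger inhibition (inferred: compounds with an IC50 in retests scored well above the rest). About 69,000 compounds were tested under these conditions; 1.5% (about 1,000) showed 50% or more at least once.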
Pks13 thioesterase: 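Enzyme assay of the thioesterase domain of polyketide synthase 13; the read-out is not stated. Target: Polyketide synthase Pks13, Mycobacterium tuberculosis (UniProt I6X8D2). Tested at 30 µM. Higher reads as stronger inhibition (inferred from which compounds were picked for retests). About 67,000 compounds were tested under these conditions; 0.46% (about 300) showed 50% or more at least once.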
LiHisRS: 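Enzyme assay of histidyl-tRNA synthetase; the read-out is not stated. Target: Histidine-tRNA ligase, Leishmania infantum (UniProt A4I591). Tested at 30 µM. Direction is inferred from retests: higher values go with stronger inhibition. The assay is labelled LdHisRS but filed under L. infantum. Size under these conditions: about 69,000 compounds, about 410 of them at 50% or above in at least one test.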

Values are the deposited “Percent Effect”, in %.
The record does not define 0% and 100%; most values in the screen are far below 50% and negative numbers occur (in some assays of this library far below -100).
This is an unselected part of the compounds tested.
Two or more numbers in one place are separate tests of the same structure; such repeats can differ widely.

{"structure": "CCCC1CN(CCOC)C(=O)c2cccnc2O1", "stereo": "stereo unspecified", "Leishmania in macrophages": 3.617, "Pks13 thioesterase": 15.5, "LiHisRS": 16.33}
{"structure": "CC(C)(C)C(=O)N1CCC2(COCc3cnc(N4CCOCC4)nc32)C1", "stereo": "stereo unspecified", "Leishmania in macrophages": 10.57, "Pks13 thioesterase": -26.17, "LiHisRS": 7.767}
{"structure": "CCN1CC(CN(C)Cc2nc(-c3ccoc3)oc2C)CC1=O", "stereo": "stereo unspecified", "Leishmania in macrophages": -10.15, "Pks13 thioesterase": -1.562, "LiHisRS": 16.33}
{"structure": "COCCO[C@@H]1CCN(C(=O)c2ccc[nH]2)[C@H]1Cc1cnn(C)c1", "Leishmania in macrophages": -16.03, "Pks13 thioesterase": 2.009, "LiHisRS": 13}
{"structure": "CN(C)C(=O)c1cnc2n1CCN(Cc1ccccc1)C2", "Pks13 thioesterase": -17.47, "LiHisRS": 9.489}
{"structure": "O=C(O)c1c(-c2ccoc2)ncc2c1CCN(C1CCOC1)C2", "stereo": "stereo unspecified", "Pks13 thioesterase": -7.823, "LiHisRS": 17.24}
{"structure": "CCN(Cc1ccoc1)C(=O)c1cc2c(c(S(N)(=O)=O)c1)CCC2", "Leishmania in macrophages": -13.62, "Pks13 thioesterase": -9.962, "LiHisRS": 2.941}
{"structure": "CC(C)CS(=O)(=O)CC(=O)N1CCCC1c1noc(C2CC2)n1", "stereo": "stereo unspecified", "Leishmania in macrophages": 20.93, "Pks13 thioesterase": -14.38, "LiHisRS": 0}
{"structure": "O=C(O)C(F)(F)F.[H][C@@]12CCCO[C@]1([H])[C@H](NC(=O)c1cnn(C)c1)CN2Cc1cccs1", "Leishmania in macrophages": 12.4}
{"structure": "Cc1cnc(C(=O)N2CCC3(CCN(Cc4ccccn4)C3=O)C2)cn1", "stereo": "stereo unspecified", "Pks13 thioesterase": -3.451, "LiHisRS": 24.47}
{"structure": "NC(=O)c1cnc2n1CCN(C(=O)c1ccc(-c3cc[nH]n3)cc1)C2", "Leishmania in macrophages": 12.9, "Pks13 thioesterase": -13.95, "LiHisRS": 14.94}
{"structure": "CC(C)NC(=O)c1cccc(Oc2ccc3nncn3n2)c1", "Leishmania in macrophages": -11.64, "Pks13 thioesterase": -4.307, "LiHisRS": 18.68}
{"structure": "CCC1=N[C@@]2(CC[C@@H]3CN(CC4CC4)C[C@@H]32)C(=O)N1C", "Pks13 thioesterase": -34.69, "LiHisRS": 12.03}
{"structure": "CCCOC1CCCN(C(=O)c2cc(CN(CC)CC)c(CC)o2)C1", "stereo": "stereo unspecified", "Leishmania in macrophages": -9.061, "Pks13 thioesterase": -50.13, "LiHisRS": 5.594}
{"structure": "CCCS(=O)(=O)N1CCC(NC(=O)c2cc(CC)c(C)s2)CC1", "Leishmania in macrophages": 23.51, "Pks13 thioesterase": -15.15, "LiHisRS": 13.39}
{"structure": "Cc1ccc(S(=O)(=O)NC(=O)CCC2CCCO2)cc1", "stereo": "stereo unspecified", "Leishmania in macrophages": 21.69, "Pks13 thioesterase": -5.442, "LiHisRS": 6.14}
{"structure": "Cc1noc(-c2ccc(N3CCCC(C(=O)N4CCSCC4)C3)nc2)n1", "stereo": "stereo unspecified", "Leishmania in macrophages": -6.73, "Pks13 thioesterase": -0.2039, "LiHisRS": 7.692}
{"structure": "COc1cc2nc3n(c(=O)c2cc1OC)CCN(C(=O)C1CCC1)CC3", "Leishmania in macrophages": "-10.13 & -4.016", "Pks13 thioesterase": 0.5579, "LiHisRS": 15.94}
{"structure": "O=C(CCc1cc(F)ccc1F)NS(=O)(=O)c1ccc2c(c1)OCCO2", "Leishmania in macrophages": 26.75, "Pks13 thioesterase": -17.79, "LiHisRS": 4.348}

The first 2 entries again:

structure,Leishmania in macrophages,Pks13 thioesterase,LiHisRS
CCCC1CN(CCOC)C(=O)c2cccnc2O1 (stereo unspecified),3.617,15.5,16.33
CC(C)(C)C(=O)N1CCC2(COCc3cnc(N4CCOCC4)nc32)C1 (stereo unspecified),10.57,-26.17,7.767

Measurements from “University of Dundee, Small-Polar-MMV Screening Library” (2021), ChEMBL document CHEMBL3988442.